Laboratory results from article PMC7819943, “Rice protein-binding microarrays: a tool to detect cis-acting elements near promoter regions in rice”.
The list shows a part of the results.

Chains of the proteins cited; added tags and fusions are not shown.
UniProt Q0JBA9, entry or part of it: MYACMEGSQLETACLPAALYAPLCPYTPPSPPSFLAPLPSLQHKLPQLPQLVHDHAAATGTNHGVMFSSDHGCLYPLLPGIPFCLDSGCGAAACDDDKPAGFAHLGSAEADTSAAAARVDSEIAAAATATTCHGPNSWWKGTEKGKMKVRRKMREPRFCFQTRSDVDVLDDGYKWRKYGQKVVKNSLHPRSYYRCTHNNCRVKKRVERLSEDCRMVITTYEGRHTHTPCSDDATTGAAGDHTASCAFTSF

molecular target: OsWRKY34 (Oryza sativa, UniProt Q0JBA9 1-250); test: protein-binding microarray (RPBM); PBS, 2% BSA, 51.3 ng/ul salmon testes DNA, 50 uM zinc acetate, 200 nM TF, 25 C, 1 h; high values mean tight binding; conditions: protein: recombinant; tags: N-terminal polyhistidine and DsRed monomer fusion (pET32a); label: CyDye5-dUTP incorporated in the synthesized complementary strand; 3' TTTTT single-stranded linker to array surface; dsDNA, one strand shown
Outline: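 Binding signal is defined as the fluorescence intensity of each feature in arbitrary units, read on an Axon 4000B scanner. Transcription factors with N-terminal polyhistidine and DsRed fusions came from E. coli BL21-CodonPlus and were purified on Ni–NTA. They were incubated at 200 nM for 1 h at 25 °C on a custom Agilent array that had been made double-stranded with Cy5-dUTP, with 50 µM zinc acetate present, and the array was washed.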

Sequence | binding signal
TCTCTCTCGCCGCCGACTCGCCTCACCCGCCGCTATATATCGGAGTCACCTAGTGCAG | 13500 fluorescence intensity (a.u.)
CTCATCTCCACAAGGACACCCCAGCCCACCACTCATCGGCCGGAGTCACCTAGTGCAG | 8060 fluorescence intensity (a.u.)
AACTACATATTGTATATACTTTCATCTAACACTGCTGTCACGGAGTCACCTAGTGCAG | 10400 fluorescence intensity (a.u.)
AGTGTCTGACACTACTTAAGAAACCATAGCAGTGCTAAAGCGGAGTCACCTAGTGCAG | 31200 fluorescence intensity (a.u.)
TCTCACCATCCAGTGGTCACTGCTCCTCCTTCCTTTCCTTCGGAGTCACCTAGTGCAG | 8360 fluorescence intensity (a.u.)
CCTCGTGTCATTCTGTCGCTATCTCGTTATGGGTTATGGGCGGAGTCACCTAGTGCAG | 14000 fluorescence intensity (a.u.)
ACCCGCACACCGTCCCGTGCCAGCTGCCTCGCCACCGTTCCGGAGTCACCTAGTGCAG | 11900 fluorescence intensity (a.u.)
CGGTGGGTCTCAAGTTCTGAACTTTCTGTCAAGCGTCCGACGGAGTCACCTAGTGCAG | 9020 fluorescence intensity (a.u.)
CTCCACCGCTATCTCATTTGTCTATGTTCGAGCCATTATTCGGAGTCACCTAGTGCAG | 11200 fluorescence intensity (a.u.)
AGTGAACTTTTTTCCCTGTCCCTGTGCTTTCTAATCCCAGCGGAGTCACCTAGTGCAG | 9370 fluorescence intensity (a.u.)
CATTCATCAATCGTCGCCTGATCGCCTCCAGCGAAATTCTCGGAGTCACCTAGTGCAG | 8130 fluorescence intensity (a.u.)
ACCGTCACCTGGATCCGCAACCGCGCCGCCGTCGCCCGCGCGGAGTCACCTAGTGCAG | 8540 fluorescence intensity (a.u.)
TTTTAGGGTTATGGCCGTTGTCTTTCAATTTGAACCAGTTCGGAGTCACCTAGTGCAG | 8710 fluorescence intensity (a.u.)
CCAATTTCTTTCTCTCTTCACTCTTTCTCTTAGTTAATATCGGAGTCACCTAGTGCAG | 9550 fluorescence intensity (a.u.)
ACTTTTTAGCCCATGTCACATCGGATGTTTGGACGTTAATCGGAGTCACCTAGTGCAG | 9010 fluorescence intensity (a.u.)
TTGTAAATTTTTTTCGTTTGTAAATATACCGTTTGGTTTACGGAGTCACCTAGTGCAG | 8500 fluorescence intensity (a.u.)
TCTACTGTCATGCTTCCTTGTCCCATTATTACATCGTCGTCGGAGTCACCTAGTGCAG | 14200 fluorescence intensity (a.u.)
TTGATCCTGCTTTTAGTTATAGTTTTTGTTAGGGTGTATTCGGAGTCACCTAGTGCAG | 10100 fluorescence intensity (a.u.)
TGCTCCACCACCGCGTCCTCCTGCTCCTCGAACTCCAACCCGGAGTCACCTAGTGCAG | 8590 fluorescence intensity (a.u.)
AATGTTGTTTGGCTTATGTGTTCCTTATTTCCATCATCTGCGGAGTCACCTAGTGCAG | 10800 fluorescence intensity (a.u.)
CTTCTCTGTTATCATCGTATATACTACATATTTTACATTGCGGAGTCACCTAGTGCAG | 9820 fluorescence intensity (a.u.)
GGATCATTTTTCGGCCCTACGCGCGGCCTCCCTCCCGGGACGGAGTCACCTAGTGCAG | 8540 fluorescence intensity (a.u.)
GCTCGTTCATTCATTTTCTCTAAACCCCGATCATTATCCGCGGAGTCACCTAGTGCAG | 9330 fluorescence intensity (a.u.)
ACCCCTGCTTTATCCTCAACCTCATGCACAGGTAAATATCCGGAGTCACCTAGTGCAG | 8310 fluorescence intensity (a.u.)
AGTGGTAAAAGATCCTATATAGTGAAAAAAATAGACAGCGCGGAGTCACCTAGTGCAG | 8160 fluorescence intensity (a.u.)
GGAAGATTACCCTGTTTACCACTCACTGTACGATGATTATCGGAGTCACCTAGTGCAG | 9260 fluorescence intensity (a.u.)
CGCCCTATATATACAAACAACTCTTGCTTCCCACAATCTCCGGAGTCACCTAGTGCAG | 8280 fluorescence intensity (a.u.)

Sequence | binding signal
ATGCGTGACTTGTTTTTTTAATTTTTTTTTATATTTTTTTCGGAGTCACCTAGTGCAG | 12000 fluorescence intensity (a.u.)
AGCACCGTACATACCATATCCACCTCCAGTAGTCAAAGCACGGAGTCACCTAGTGCAG | 8940 fluorescence intensity (a.u.)
CACCTCAATCAGAAACATGGCATCGAACACTTGCGATATACGGAGTCACCTAGTGCAG | 10000 fluorescence intensity (a.u.)
CGTTCTTTCTCTCCCAGCCGTCGTTTCTGTTCTCCCTCTCCGGAGTCACCTAGTGCAG | 9830 fluorescence intensity (a.u.)
TCCTTCTTGTTGCCAATCTTTGAACTCAATATCTCTCGAGCGGAGTCACCTAGTGCAG | 9540 fluorescence intensity (a.u.)
TTTCATGTTTTTTCACCCTTTTTCGTTATTACGAACGACGCGGAGTCACCTAGTGCAG | 9110 fluorescence intensity (a.u.)
AGTTTTTGTTTTTATCTATATTTGATGCTCTATACATGTGCGGAGTCACCTAGTGCAG | 8860 fluorescence intensity (a.u.)
CATCCTCTTCCACCTCTCGCGCTCACGCCATTTATACTCTCGGAGTCACCTAGTGCAG | 11100 fluorescence intensity (a.u.)
TTTTGATTGCACCTTGCTTCTCGTATACACCCTCACCTATCGGAGTCACCTAGTGCAG | 12600 fluorescence intensity (a.u.)
AAGCACCTTGGCGACGCATGTGGTCAACAAGCTCCTCGGCCGGAGTCACCTAGTGCAG | 8050 fluorescence intensity (a.u.)
TCTGGTTTTGTAGTTTAGGGTTATGGTTTAGATTTCGATCCGGAGTCACCTAGTGCAG | 10300 fluorescence intensity (a.u.)
ATGTTTTGGTTATGTGCATTTTAGCTATGCAGAGATAGAACGGAGTCACCTAGTGCAG | 9030 fluorescence intensity (a.u.)
CTCCTCTTTGTGTGTAGACTGAAAAGGTGGAAAGTTTACCCGGAGTCACCTAGTGCAG | 9750 fluorescence intensity (a.u.)
CCGACCGTTCTCCGGCAGCGCTTTGTACCGATTGTTGATACGGAGTCACCTAGTGCAG | 9420 fluorescence intensity (a.u.)
GCCCCAACCTCGTCGCTACCCGCGAGCCTCGGCTTATCGACGGAGTCACCTAGTGCAG | 65100 fluorescence intensity (a.u.)
CGCGTCCTCGAGCTCGGCTAATTAACGATACTTTTACTGACGGAGTCACCTAGTGCAG | 9400 fluorescence intensity (a.u.)
CTTCTCCGGTCAAGCTTGGCTGCTTTGTCGAGATGTATAACGGAGTCACCTAGTGCAG | 8040 fluorescence intensity (a.u.)
ATTTATCTTTGGCCTTAATCTTGCTTCTCTTCTTTTTCACCGGAGTCACCTAGTGCAG | 10100 fluorescence intensity (a.u.)
CATGAACACCACATGCATTTGTCCTGCATGTCAACTACTCCGGAGTCACCTAGTGCAG | 10300 fluorescence intensity (a.u.)
GGATCGACTATTTTACAGGTAACCTTATCGTTATTTTCTACGGAGTCACCTAGTGCAG | 9900 fluorescence intensity (a.u.)
TTTCATTTGTTCAGTCATGAATTGTTATTGCAATATATTCCGGAGTCACCTAGTGCAG | 11100 fluorescence intensity (a.u.)
GATCTGTACTTATGAATTTTATGGCTATTTATGGGTTGGTCGGAGTCACCTAGTGCAG | 10400 fluorescence intensity (a.u.)
GCATCCTTTTCATTGGCCTTTGCGTGTAATTTGGGGCATGCGGAGTCACCTAGTGCAG | 9230 fluorescence intensity (a.u.)
CATATCCCTTTTCACCTTTTTGCCAGAATTAACATATTTCCGGAGTCACCTAGTGCAG | 9840 fluorescence intensity (a.u.)
ACTTTTATTTTTCCGCTTTTAATTGCTACAACCTCCCGCGCGGAGTCACCTAGTGCAG | 8810 fluorescence intensity (a.u.)
TGCTAGAATCCGATTCGGCCACCTACTACATTGCTGAATTCGGAGTCACCTAGTGCAG | 8790 fluorescence intensity (a.u.)
TTGCACACATTTTCCACCCACACAAATAATTAACTCCAAACGGAGTCACCTAGTGCAG | 8450 fluorescence intensity (a.u.)

Individual results from the results shown.
binding signal, GCTCGTTCATTCATTTTCTCTAAACCCCGATCATTATCCGCGGAGTCACCTAGTGCAG is entered as 9330 fluorescence intensity (a.u.)
binding signal, CATTCATCAATCGTCGCCTGATCGCCTCCAGCGAAATTCTCGGAGTCACCTAGTGCAG is entered as 8130 fluorescence intensity (a.u.)
